Reference: the supplement of paper PMC10849652
Some of the results follow.

The chains behind the UniProt entries cited, without tags or fusion partners. Where a name states a change or a piece, a line headed by the entry shows the natural chain unless it says otherwise.
UniProt Q8TCT9: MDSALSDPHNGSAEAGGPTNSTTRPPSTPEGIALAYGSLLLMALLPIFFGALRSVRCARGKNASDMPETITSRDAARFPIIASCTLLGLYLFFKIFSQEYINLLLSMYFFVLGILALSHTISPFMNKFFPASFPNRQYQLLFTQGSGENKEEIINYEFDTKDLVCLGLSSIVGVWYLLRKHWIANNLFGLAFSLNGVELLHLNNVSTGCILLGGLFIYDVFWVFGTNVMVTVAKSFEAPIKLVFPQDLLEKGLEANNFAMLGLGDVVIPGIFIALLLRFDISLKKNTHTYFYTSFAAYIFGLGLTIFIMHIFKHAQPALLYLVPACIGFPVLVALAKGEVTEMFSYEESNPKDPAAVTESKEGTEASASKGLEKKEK
UniProt Q01581: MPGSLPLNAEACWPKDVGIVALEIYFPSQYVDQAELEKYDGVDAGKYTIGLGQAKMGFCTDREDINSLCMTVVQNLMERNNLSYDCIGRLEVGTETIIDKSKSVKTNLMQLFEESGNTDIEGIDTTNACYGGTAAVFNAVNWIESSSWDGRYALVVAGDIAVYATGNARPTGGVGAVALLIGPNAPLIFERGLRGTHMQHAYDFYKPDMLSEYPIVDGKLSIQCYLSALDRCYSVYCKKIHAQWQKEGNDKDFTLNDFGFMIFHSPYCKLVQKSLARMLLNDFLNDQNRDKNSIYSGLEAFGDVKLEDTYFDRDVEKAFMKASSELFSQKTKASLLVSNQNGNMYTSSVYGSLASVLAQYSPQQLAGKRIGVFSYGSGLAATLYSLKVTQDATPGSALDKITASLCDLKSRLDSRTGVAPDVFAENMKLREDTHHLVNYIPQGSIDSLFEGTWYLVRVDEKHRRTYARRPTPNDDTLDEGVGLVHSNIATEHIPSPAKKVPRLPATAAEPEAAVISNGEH
UniProt P31942: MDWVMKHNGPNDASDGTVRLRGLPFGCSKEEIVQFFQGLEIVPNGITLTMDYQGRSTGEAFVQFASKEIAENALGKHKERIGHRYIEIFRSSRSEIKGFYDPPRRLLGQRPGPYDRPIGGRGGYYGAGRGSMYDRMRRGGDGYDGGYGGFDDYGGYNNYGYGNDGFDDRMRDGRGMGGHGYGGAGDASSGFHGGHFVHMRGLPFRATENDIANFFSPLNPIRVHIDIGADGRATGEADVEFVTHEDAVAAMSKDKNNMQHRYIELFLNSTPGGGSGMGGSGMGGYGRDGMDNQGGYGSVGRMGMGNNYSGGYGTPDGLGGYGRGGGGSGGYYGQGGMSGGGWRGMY
UniProt P07686: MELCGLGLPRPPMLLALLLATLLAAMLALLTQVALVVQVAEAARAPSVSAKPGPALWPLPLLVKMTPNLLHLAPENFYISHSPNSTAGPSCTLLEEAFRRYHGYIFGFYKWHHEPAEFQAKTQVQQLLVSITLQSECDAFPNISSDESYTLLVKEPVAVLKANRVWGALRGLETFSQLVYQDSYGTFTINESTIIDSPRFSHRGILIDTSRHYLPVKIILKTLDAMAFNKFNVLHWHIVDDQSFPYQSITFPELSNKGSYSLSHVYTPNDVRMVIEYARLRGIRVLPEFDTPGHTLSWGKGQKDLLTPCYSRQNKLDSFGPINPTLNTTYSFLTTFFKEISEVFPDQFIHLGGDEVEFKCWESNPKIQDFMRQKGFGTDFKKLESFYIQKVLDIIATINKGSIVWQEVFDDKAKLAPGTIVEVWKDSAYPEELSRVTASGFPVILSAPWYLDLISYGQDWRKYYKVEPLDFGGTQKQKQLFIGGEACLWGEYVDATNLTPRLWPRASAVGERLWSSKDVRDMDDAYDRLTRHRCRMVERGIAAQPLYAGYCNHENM
UniProt Q9BW71: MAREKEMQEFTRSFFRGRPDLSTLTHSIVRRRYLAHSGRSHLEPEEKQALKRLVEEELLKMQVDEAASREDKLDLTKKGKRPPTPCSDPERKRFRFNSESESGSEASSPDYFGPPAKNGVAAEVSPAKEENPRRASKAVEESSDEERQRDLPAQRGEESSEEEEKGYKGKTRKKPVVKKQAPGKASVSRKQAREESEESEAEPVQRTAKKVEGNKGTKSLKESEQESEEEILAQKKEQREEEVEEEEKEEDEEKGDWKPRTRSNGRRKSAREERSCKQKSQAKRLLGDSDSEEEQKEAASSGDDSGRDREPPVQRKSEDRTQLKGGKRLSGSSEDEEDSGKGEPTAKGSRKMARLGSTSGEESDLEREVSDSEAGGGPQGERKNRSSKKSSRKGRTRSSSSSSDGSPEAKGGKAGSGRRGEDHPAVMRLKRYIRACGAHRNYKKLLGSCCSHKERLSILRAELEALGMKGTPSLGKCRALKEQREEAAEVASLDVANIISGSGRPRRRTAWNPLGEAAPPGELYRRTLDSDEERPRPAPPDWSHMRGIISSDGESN
UniProt Q8WVV9: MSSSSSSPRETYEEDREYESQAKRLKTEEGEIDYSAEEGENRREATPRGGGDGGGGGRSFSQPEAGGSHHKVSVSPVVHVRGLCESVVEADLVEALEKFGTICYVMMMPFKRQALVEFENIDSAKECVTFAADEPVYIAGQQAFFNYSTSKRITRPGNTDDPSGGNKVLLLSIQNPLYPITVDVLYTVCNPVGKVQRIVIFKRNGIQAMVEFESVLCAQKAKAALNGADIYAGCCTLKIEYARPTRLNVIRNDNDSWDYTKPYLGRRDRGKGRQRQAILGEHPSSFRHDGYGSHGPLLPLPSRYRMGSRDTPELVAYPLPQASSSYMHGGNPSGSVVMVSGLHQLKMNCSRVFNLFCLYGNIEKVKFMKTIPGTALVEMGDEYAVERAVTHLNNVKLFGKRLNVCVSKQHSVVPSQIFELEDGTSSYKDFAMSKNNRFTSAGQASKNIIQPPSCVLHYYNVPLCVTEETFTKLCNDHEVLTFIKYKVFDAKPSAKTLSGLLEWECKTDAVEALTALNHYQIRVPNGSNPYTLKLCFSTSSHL
UniProt O43390: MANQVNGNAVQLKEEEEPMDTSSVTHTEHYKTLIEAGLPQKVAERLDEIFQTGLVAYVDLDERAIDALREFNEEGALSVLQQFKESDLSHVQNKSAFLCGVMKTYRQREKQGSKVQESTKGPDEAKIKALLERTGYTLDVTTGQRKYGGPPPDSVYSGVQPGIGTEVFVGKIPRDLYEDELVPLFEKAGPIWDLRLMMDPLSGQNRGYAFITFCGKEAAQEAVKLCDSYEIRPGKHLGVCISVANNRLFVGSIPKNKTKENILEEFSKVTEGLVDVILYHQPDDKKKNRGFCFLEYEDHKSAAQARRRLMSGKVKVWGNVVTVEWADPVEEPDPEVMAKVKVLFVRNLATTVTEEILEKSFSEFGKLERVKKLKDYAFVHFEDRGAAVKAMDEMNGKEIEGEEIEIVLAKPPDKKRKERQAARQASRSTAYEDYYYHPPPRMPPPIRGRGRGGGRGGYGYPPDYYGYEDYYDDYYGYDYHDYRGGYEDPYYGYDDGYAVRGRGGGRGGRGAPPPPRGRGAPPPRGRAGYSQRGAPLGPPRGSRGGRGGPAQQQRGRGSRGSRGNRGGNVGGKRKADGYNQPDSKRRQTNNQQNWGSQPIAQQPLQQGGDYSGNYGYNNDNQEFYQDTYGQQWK
UniProt O14964, whole entry, looked up: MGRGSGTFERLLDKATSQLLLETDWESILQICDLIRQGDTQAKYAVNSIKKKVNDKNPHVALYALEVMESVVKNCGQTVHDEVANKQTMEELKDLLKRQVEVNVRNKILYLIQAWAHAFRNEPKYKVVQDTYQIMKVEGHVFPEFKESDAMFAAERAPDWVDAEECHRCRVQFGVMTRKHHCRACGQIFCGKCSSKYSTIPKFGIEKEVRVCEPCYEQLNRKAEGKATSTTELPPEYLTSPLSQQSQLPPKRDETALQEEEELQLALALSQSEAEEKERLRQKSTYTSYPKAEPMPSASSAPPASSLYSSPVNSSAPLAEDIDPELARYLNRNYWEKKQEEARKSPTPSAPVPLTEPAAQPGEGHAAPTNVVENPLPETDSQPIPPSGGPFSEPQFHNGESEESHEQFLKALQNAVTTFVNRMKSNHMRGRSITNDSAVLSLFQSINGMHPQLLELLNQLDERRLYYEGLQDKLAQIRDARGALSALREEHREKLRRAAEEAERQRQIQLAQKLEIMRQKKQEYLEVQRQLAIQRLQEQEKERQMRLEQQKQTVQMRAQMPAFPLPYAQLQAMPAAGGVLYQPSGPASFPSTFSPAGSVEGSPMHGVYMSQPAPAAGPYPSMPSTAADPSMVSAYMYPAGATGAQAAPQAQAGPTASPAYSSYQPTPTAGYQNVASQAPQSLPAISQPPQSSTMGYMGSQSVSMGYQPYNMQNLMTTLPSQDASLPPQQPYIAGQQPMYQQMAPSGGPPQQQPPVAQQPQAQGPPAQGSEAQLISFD
UniProt Q3SXM5: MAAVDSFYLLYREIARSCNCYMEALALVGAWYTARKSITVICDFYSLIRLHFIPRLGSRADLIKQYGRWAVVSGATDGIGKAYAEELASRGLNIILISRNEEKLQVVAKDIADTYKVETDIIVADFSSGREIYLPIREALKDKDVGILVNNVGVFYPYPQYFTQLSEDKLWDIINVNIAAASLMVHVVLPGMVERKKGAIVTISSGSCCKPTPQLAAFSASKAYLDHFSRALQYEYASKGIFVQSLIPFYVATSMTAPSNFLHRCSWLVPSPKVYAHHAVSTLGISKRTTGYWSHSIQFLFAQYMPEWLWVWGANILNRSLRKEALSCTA
UniProt Q9BTY7: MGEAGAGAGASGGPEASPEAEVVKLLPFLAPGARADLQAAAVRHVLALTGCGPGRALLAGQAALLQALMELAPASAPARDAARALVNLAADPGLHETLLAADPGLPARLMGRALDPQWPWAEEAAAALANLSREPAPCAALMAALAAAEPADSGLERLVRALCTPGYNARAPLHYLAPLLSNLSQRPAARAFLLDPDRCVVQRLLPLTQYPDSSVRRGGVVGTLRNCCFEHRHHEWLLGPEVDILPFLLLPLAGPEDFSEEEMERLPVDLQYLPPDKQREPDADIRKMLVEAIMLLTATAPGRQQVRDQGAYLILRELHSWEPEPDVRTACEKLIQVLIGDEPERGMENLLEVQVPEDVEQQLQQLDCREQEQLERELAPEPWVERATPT
UniProt P05114: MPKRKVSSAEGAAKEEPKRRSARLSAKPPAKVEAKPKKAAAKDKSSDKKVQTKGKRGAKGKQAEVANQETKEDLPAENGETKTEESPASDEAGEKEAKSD
UniProt P00492: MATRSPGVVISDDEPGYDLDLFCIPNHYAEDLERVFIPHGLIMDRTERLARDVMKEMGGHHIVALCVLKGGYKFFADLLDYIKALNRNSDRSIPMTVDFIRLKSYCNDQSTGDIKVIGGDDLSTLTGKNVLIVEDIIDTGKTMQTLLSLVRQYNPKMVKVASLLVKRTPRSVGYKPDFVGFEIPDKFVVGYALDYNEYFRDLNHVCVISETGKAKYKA
UniProt P51659: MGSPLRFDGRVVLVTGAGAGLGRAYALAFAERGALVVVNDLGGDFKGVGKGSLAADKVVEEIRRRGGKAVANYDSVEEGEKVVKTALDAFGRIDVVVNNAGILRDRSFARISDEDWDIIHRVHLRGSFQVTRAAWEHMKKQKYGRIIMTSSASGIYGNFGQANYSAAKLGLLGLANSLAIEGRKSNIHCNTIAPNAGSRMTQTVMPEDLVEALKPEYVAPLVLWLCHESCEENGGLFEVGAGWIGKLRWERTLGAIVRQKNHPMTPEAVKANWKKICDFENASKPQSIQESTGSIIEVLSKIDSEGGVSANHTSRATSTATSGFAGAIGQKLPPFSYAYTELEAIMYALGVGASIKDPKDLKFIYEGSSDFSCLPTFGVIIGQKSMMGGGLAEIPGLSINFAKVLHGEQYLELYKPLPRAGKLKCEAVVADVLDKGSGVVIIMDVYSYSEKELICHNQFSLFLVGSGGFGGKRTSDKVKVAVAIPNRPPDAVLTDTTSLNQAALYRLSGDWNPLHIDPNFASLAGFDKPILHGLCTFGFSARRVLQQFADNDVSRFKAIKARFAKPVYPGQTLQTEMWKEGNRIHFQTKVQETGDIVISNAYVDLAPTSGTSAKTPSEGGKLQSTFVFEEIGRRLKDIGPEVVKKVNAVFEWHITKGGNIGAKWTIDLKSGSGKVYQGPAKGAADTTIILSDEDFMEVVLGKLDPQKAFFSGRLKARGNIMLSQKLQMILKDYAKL
UniProt Q53T59: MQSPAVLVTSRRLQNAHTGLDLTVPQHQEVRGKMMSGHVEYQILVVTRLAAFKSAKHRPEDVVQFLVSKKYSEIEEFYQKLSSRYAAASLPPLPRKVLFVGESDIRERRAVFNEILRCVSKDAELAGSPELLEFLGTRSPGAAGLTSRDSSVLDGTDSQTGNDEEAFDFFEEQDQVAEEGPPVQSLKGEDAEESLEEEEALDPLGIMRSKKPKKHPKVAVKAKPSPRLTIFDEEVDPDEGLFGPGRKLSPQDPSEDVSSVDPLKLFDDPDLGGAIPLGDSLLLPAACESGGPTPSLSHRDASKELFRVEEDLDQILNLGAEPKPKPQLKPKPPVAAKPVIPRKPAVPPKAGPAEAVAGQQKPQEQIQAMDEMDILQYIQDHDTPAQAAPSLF

Legend:
Assay in all cases: log2 fold change, soluble protein after heating vs DMSO (PISA); higher = thermal stabilisation; K562 lysate, 10 uM; active = over 0.2 and 3.5 SD of the protein, either way, in both replicates (recomputed)
alvocidib = compound: CN1CC[C@H](c2c(O)cc(O)c3c(=O)cc(-c4ccccc4Cl)oc23)[C@H](O)C1 [alvocidib]
In short: (§1)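 Pellets of K562 cells were dounce-homogenised in PBS pH 7.4 with 1 mM MgCl2, and the crude extract was held at 1 mg/mL protein for a 30 min treatment with 10 μM compound. Aliquots were heated for 3 min over 48°C-58°C and pooled before NP-40 was added to 0.5% at 4°C. The supernatant from 21,000xg for 90 min was quantified by TMTpro 16plex LC-MS/MS with channel sums equalised. Values are reported from duplicates as log-two fold change in thermal stability relative to solvent controls.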

Tubastatin A = compound: CN1CCc2c(c3ccccc3n2Cc2ccc(C(=O)NO)cc2)C1 [Tubastatin A]
In short: as §1

[1] = compound: CNC(=O)C1=CC=CC=C1NC2=NC(=NC=C2Cl)NC3=C(C=C(C=C3)N4CCOCC4)OC
In short: as §1

defactinib = compound: CNC(=O)c1ccc(Nc2ncc(C(F)(F)F)c(NCc3nccnc3N(C)S(C)(=O)=O)n2)cc1 [defactinib]
In short: as §1

[2] = compound: CNc1nc(-c2ccc3c(N)n[nH]c3c2)cc(N2C[C@@H](C(=O)NC3CCCCC3)CC[C@H]2C)n1
In short: as §1

encorafenib = compound: COC(=O)N[C@@H](C)CNc1nccc(-c2cn(C(C)C)nc2-c2cc(Cl)cc(NS(C)(=O)=O)c2F)n1 [encorafenib]
In short: as §1

[3] = compound: COC(=O)[C@H](CCSC)NC(=O)C1=C(C=C(C=C1)NC[C@H](CS)N)C2=CC=CC=C2
In short: as §1

alisertib = compound: COc1cc(Nc2ncc3c(n2)-c2ccc(Cl)cc2C(c2c(F)cccc2OC)=NC3)ccc1C(=O)O [alisertib]
In short: as §1

[4] = compound: COc1cc2nc(-c3cc(F)ccc3O)nc(N[C@@H]3CNC[C@H]3C(C)(C)O)c2cc1OC
In short: as §1

gefitinib = compound: COc1cc2ncnc(Nc3ccc(F)c(Cl)c3)c2cc1OCCCN1CCOCC1 [gefitinib]
In short: as §1

Measured: log2 fold change

HEXIM1 (UniProt O94992)
inactive: alvocidib -0.047 | Tubastatin A 0.014 | [1] 0.015 | defactinib 0.035 | [2] 0.068 | encorafenib 0.004 | [3] -0.061 | alisertib 0.03 | [4] 0.041 | gefitinib -0.014

HIKESHI (UniProt Q53FT3)
inactive: alvocidib 0.027 | Tubastatin A -0.02 | [1] 0.015 | defactinib 0.053 | [2] 0.033 | encorafenib -0.024 | [3] -0.03 | alisertib 0.038 | [4] -0.009 | gefitinib -0.026

HIC2 (UniProt Q96JB3)
inactive: alvocidib -0.051 | Tubastatin A -0.026 | [1] 0.035 | defactinib -0.027 | [2] -0.032 | encorafenib 0.028 | [3] -0.048 | alisertib 0.037 | [4] 0.001 | gefitinib -0.044

HM13 (UniProt Q8TCT9)
inactive: alvocidib -0.109 | Tubastatin A -0.009 | [1] -0.004 | defactinib 0.127 | [2] 0.187 | encorafenib 0.08 | [3] 0.126 | alisertib 0.077 | [4] -0.029 | gefitinib 0.089

HMGCS1 (UniProt Q01581)
inactive: alvocidib 0.021 | Tubastatin A -0.073 | [1] 0.004 | defactinib -0.011 | [2] 0.006 | encorafenib -0.021 | [3] 0.078 | alisertib 0.012 | [4] -0.002 | gefitinib 0.013

HNRNPH3 (UniProt P31942)
inactive: alvocidib 0.021 | Tubastatin A -0.255 | [1] 0.002 | defactinib 0.036 | [2] -0.063 | encorafenib 0.04 | [3] 0.031 | alisertib 0 | [4] 0.002 | gefitinib -0.029

HRC (UniProt P23327)
inactive: alvocidib -0.107 | Tubastatin A 0.068 | [1] -0.029 | defactinib 0.001 | [2] -0.015 | encorafenib -0.016 | [3] -0.005 | alisertib 0.012 | [4] 0.023 | gefitinib 0.009

HEXB (UniProt P07686)
inactive: alvocidib 0.013 | Tubastatin A -0.003 | [1] -0.02 | defactinib -0.005 | [2] -0.026 | encorafenib -0.003 | [3] 0.006 | alisertib 0.021 | [4] -0.004 | gefitinib -0.033

HIRIP3 (UniProt Q9BW71)
inactive: alvocidib -0.023 | Tubastatin A 0.016 | [1] 0.033 | defactinib -0.014 | [2] 0.062 | encorafenib 0.025 | [3] -0.012 | alisertib 0.046 | [4] 0 | gefitinib 0.05

HLTF (UniProt Q14527)
inactive: alvocidib -0.027 | Tubastatin A -0.083 | [1] -0.001 | defactinib 0.028 | [2] 0.025 | encorafenib 0.004 | [3] 0.104 | alisertib 0.048 | [4] 0.01 | gefitinib 0.076

HNRNPLL (UniProt Q8WVV9)
inactive: alvocidib 0.015 | Tubastatin A -0.164 | [1] 0.021 | defactinib 0.035 | [2] -0.016 | encorafenib 0.082 | [3] -0.07 | alisertib -0.016 | [4] 0.011 | gefitinib -0.052

HNRNPR (UniProt O43390)
inactive: alvocidib -0.04 | Tubastatin A 0 | [1] -0.002 | defactinib 0.048 | [2] -0.046 | encorafenib 0.104 | [3] -0.064 | alisertib -0.137 | [4] -0.012 | gefitinib -0.1

HGS (UniProt O14964)
inactive: alvocidib 0.001 | Tubastatin A 0.035 | [1] 0 | defactinib -0.018 | [2] 0.005 | encorafenib 0.012 | [3] -0.009 | alisertib -0.015 | [4] 0.006 | gefitinib 0.017

HEATR6 (UniProt Q6AI08)
inactive: alvocidib 0.03 | Tubastatin A -0.1 | [1] 0.025 | defactinib 0.011 | [2] 0.008 | encorafenib 0.039 | [3] 0.101 | alisertib -0.028 | [4] -0.01 | gefitinib 0.001

HECTD4 (UniProt J3KPF0)
inactive: alvocidib -0.027 | Tubastatin A -0.075 | [1] 0.001 | defactinib 0.012 | [2] -0.017 | encorafenib -0.072 | [3] 0.146 | alisertib 0.013 | [4] 0.045 | gefitinib -0.043

HSDL1 (UniProt Q3SXM5)
inactive: alvocidib -0.082 | Tubastatin A 0.095 | [1] 0.071 | defactinib 0.006 | [2] 0.021 | encorafenib -0.027 | [3] 0.097 | alisertib -0.008 | [4] -0.03 | gefitinib -0.037

HOMEZ isoform 3 (UniProt Q8IX15)
inactive: alvocidib 0.05 | Tubastatin A -0.007 | [1] 0.011 | defactinib 0.014 | [2] -0.016 | encorafenib -0.026 | [3] -0.017 | alisertib -0.03 | [4] 0.109 | gefitinib -0.015

HGH1 (UniProt Q9BTY7)
inactive: alvocidib 0.019 | Tubastatin A -0.111 | [1] 0.014 | defactinib 0.022 | [2] -0.041 | encorafenib 0.004 | [3] 0.06 | alisertib 0.01 | [4] -0.053 | gefitinib -0.036

HOMER1 (UniProt Q86YM7)
inactive: alvocidib 0.031 | Tubastatin A 0.027 | [1] 0.026 | defactinib -0.019 | [2] 0.046 | encorafenib 0.03 | [3] 0.01 | alisertib 0.009 | [4] -0.02 | gefitinib -0.035

HMGN1 (UniProt P05114)
inactive: alvocidib 0.044 | Tubastatin A 0.107 | [1] -0.017 | defactinib -0.06 | [2] 0.012 | encorafenib -0.035 | [3] -0.008 | alisertib 0.006 | [4] 0.006 | gefitinib -0.005

HNRNPAB isoform 3 (UniProt Q99729)
inactive: alvocidib -0.018 | Tubastatin A 0.021 | [1] -0.018 | defactinib 0.017 | [2] 0.043 | encorafenib -0.012 | [3] -0.016 | alisertib -0.035 | [4] 0 | gefitinib 0.03

2 consecutive records already listed:
HEXB (UniProt P07686)
inactive: alvocidib 0.013 | Tubastatin A -0.003 | [1] -0.02 | defactinib -0.005 | [2] -0.026 | encorafenib -0.003 | [3] 0.006 | alisertib 0.021 | [4] -0.004 | gefitinib -0.033

HIRIP3 (UniProt Q9BW71)
inactive: alvocidib -0.023 | Tubastatin A 0.016 | [1] 0.033 | defactinib -0.014 | [2] 0.062 | encorafenib 0.025 | [3] -0.012 | alisertib 0.046 | [4] 0 | gefitinib 0.05

Next results

HIST2H3A (UniProt Q71DI3)
inactive: alvocidib -0.041 | Tubastatin A 0.027 | [1] -0.031 | defactinib 0.002 | [2] 0.234 | encorafenib 0.023 | [3] 0.071 | alisertib -0.004 | [4] -0.004 | gefitinib 0.005

HPRT1 (UniProt P00492)
inactive: alvocidib 0.019 | Tubastatin A 0.023 | [1] -0.018 | defactinib -0.012 | [2] -0.08 | encorafenib -0.005 | [3] -0.062 | alisertib 0.013 | [4] -0.03 | gefitinib 0.035

HELZ (UniProt P42694)
inactive: alvocidib -0.064 | Tubastatin A -0.085 | [1] 0.034 | defactinib 0.041 | [2] -0.023 | encorafenib 0.008 | [3] -0.004 | alisertib 0.02 | [4] 0.063 | gefitinib -0.02

HSPA4 (UniProt P34932)
inactive: alvocidib 0 | Tubastatin A 0.016 | [1] -0.018 | defactinib -0.006 | [2] -0.035 | encorafenib -0.025 | [3] 0.033 | alisertib 0.001 | [4] -0.006 | gefitinib -0.008

HSD17B4 (UniProt P51659)
inactive: alvocidib 0.009 | Tubastatin A 0.03 | [1] -0.003 | defactinib 0.002 | [2] 0.009 | encorafenib 0.001 | [3] -0.119 | alisertib 0.03 | [4] -0.008 | gefitinib -0.011

HMGB3 (UniProt O15347)
inactive: alvocidib 0.036 | Tubastatin A 0 | [1] 0.006 | defactinib -0.017 | [2] 0.079 | encorafenib -0.011 | [3] -0.074 | alisertib -0.047 | [4] -0.046 | gefitinib -0.021

HS1BP3 (UniProt Q53T59)
inactive: alvocidib -0.054 | Tubastatin A 0.034 | [1] -0.015 | defactinib -0.016 | [2] -0.052 | encorafenib 0.009 | [3] -0.088 | alisertib -0.021 | [4] 0.021 | gefitinib -0.031

HECTD1 (UniProt Q9ULT8)
inactive: alvocidib -0.01 | Tubastatin A -0.054 | [1] -0.017 | defactinib 0.026 | [2] 0.005 | encorafenib -0.005 | [3] 0.012 | alisertib -0.002 | [4] 0.034 | gefitinib 0.013

HEBP2 (UniProt Q9Y5Z4)
inactive: alvocidib 0.033 | Tubastatin A 0.039 | [1] 0.003 | defactinib -0.033 | [2] -0.011 | encorafenib -0.007 | [3] -0.014 | alisertib -0.027 | [4] 0.023 | gefitinib -0.019
